For the experiment, the target named is His-tagged Dpo41, putative tail fiber protein (ep3_0041) of phage vB_EcoM-ep3 (phage vB_EcoM-ep3). The experiment can be described thus: affinity purification with mass spectrometry; His-tagged Dpo41 incubated with a cell lysate of E. coli strain O78-6; co-immunoprecipitate on silver stained SDS-polyacrylamide gel, bands sent for mass spectrometry; only the target purified.

These are yes or no findings as the source states them, for the method shown. Binding seen in cells or lysates may run through a third protein. A yes stands for co-enrichment or nearness to the bait. Other partners may have been found.

B1: Lpp of E. coli strain O78-6 (protein, UniProt P69776 21-78)
chain: CSSNAKIDQLSSDVQTLNAKVDQLSNDVNAMRSDVQAAKDDAARANQRLDNMATKYRK
In the case of B1, the binding entry is “binds”.
